Assay results from the supplement of paper PMC10849652.
The other results are listed elsewhere or left out.

Chains of the proteins cited; added tags and fusions are not shown. Lines headed by an entry give the natural chain unless they say otherwise; changes in a name come on top.
UniProt Q9NXW9: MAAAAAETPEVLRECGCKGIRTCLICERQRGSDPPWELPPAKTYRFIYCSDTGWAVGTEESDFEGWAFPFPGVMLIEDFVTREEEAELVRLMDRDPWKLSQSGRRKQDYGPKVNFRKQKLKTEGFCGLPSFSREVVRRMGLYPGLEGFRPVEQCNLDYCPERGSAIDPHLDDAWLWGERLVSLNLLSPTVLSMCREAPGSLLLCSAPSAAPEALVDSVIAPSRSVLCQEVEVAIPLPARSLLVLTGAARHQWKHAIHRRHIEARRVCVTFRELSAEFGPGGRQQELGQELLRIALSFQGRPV
UniProt P56377: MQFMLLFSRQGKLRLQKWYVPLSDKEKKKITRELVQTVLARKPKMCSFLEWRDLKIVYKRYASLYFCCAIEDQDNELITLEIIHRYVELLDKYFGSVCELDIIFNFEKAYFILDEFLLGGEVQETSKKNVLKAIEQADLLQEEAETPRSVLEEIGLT
UniProt Q9UPS8: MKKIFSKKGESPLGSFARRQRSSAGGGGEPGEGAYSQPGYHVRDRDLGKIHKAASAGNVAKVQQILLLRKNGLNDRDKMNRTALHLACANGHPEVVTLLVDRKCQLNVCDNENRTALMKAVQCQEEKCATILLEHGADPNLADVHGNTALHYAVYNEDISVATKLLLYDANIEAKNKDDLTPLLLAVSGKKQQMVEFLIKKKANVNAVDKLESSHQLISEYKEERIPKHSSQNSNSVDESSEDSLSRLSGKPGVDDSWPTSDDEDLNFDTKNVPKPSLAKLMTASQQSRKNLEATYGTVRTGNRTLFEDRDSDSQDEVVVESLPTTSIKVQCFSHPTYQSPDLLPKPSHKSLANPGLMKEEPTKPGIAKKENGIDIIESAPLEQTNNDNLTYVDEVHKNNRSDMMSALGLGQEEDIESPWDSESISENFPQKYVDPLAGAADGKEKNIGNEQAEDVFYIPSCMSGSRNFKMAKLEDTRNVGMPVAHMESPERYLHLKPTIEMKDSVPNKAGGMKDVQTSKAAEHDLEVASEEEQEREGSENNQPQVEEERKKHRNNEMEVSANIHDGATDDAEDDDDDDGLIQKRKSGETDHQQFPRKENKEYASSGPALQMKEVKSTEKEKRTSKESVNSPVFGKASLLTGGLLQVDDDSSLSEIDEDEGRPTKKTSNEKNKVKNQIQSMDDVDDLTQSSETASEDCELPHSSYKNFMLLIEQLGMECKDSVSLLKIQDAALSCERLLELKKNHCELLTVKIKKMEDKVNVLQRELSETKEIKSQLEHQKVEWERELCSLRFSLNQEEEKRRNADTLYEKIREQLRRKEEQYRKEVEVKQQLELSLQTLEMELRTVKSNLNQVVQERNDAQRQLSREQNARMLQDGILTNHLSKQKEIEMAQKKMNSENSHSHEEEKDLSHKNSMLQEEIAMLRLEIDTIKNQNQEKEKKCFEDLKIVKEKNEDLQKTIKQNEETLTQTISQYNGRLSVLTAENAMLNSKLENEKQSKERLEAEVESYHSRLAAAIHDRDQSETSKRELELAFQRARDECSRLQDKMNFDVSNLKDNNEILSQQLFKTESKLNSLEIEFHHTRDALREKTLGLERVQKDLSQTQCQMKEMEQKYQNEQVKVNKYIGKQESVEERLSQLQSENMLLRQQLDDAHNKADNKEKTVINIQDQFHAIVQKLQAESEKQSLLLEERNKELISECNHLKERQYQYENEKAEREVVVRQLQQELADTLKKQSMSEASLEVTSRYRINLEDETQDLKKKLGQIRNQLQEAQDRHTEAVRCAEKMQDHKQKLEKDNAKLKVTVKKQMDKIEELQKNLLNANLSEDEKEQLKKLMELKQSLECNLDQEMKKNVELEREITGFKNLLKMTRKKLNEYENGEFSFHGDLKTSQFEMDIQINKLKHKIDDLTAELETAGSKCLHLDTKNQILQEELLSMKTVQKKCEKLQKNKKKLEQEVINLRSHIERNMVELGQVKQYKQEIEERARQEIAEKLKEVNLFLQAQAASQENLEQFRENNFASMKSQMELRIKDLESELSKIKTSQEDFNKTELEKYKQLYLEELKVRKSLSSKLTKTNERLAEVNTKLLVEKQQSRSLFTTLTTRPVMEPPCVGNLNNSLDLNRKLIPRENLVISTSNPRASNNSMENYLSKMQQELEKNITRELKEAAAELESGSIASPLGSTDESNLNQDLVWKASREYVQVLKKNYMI
UniProt Q9P2R3: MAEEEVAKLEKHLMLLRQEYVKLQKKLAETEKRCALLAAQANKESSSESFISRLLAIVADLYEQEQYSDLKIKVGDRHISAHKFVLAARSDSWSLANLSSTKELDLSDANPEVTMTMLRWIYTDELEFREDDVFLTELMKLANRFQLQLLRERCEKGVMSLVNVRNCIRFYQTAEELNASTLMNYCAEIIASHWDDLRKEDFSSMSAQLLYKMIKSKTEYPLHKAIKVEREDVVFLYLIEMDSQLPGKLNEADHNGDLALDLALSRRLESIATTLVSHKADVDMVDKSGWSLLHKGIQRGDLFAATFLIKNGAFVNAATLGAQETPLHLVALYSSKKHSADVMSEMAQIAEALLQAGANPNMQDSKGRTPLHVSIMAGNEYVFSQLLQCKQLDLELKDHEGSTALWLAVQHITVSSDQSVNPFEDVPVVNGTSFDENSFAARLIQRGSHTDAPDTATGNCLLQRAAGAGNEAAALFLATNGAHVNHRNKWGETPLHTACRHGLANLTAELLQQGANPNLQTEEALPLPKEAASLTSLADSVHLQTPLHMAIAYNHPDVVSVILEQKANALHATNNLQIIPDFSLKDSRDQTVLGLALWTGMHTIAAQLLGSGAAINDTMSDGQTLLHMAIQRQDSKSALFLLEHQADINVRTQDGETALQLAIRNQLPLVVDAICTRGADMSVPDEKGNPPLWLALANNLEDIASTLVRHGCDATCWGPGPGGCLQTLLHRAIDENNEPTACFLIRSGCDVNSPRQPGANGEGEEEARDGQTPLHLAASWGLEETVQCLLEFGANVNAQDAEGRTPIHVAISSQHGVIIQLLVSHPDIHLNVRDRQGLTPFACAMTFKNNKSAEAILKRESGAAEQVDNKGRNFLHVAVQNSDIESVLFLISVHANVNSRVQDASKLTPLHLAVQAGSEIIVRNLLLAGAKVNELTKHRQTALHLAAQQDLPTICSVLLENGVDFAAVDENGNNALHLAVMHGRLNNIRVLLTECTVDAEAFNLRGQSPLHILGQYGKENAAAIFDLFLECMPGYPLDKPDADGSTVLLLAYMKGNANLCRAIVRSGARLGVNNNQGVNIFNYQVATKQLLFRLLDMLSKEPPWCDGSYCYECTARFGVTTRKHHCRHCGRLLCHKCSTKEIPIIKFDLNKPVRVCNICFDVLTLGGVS
UniProt P61966: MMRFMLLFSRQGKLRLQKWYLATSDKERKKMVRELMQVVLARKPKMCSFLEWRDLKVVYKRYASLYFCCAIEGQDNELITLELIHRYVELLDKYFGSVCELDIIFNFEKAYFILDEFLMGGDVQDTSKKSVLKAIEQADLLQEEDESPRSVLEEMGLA
UniProt Q9Y672: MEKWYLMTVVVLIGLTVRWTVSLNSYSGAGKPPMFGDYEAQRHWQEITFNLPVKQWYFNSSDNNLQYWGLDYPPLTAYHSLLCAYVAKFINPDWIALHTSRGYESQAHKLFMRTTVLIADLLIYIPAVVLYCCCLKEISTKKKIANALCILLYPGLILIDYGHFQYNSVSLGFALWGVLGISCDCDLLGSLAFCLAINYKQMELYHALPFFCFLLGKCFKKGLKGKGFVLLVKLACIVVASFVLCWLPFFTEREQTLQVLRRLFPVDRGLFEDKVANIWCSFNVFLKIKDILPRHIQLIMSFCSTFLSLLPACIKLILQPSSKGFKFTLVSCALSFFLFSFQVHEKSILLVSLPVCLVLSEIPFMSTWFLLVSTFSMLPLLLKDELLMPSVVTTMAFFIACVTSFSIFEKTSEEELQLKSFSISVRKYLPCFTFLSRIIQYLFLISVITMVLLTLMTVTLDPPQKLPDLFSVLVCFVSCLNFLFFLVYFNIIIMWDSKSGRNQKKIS
UniProt Q9UPM8: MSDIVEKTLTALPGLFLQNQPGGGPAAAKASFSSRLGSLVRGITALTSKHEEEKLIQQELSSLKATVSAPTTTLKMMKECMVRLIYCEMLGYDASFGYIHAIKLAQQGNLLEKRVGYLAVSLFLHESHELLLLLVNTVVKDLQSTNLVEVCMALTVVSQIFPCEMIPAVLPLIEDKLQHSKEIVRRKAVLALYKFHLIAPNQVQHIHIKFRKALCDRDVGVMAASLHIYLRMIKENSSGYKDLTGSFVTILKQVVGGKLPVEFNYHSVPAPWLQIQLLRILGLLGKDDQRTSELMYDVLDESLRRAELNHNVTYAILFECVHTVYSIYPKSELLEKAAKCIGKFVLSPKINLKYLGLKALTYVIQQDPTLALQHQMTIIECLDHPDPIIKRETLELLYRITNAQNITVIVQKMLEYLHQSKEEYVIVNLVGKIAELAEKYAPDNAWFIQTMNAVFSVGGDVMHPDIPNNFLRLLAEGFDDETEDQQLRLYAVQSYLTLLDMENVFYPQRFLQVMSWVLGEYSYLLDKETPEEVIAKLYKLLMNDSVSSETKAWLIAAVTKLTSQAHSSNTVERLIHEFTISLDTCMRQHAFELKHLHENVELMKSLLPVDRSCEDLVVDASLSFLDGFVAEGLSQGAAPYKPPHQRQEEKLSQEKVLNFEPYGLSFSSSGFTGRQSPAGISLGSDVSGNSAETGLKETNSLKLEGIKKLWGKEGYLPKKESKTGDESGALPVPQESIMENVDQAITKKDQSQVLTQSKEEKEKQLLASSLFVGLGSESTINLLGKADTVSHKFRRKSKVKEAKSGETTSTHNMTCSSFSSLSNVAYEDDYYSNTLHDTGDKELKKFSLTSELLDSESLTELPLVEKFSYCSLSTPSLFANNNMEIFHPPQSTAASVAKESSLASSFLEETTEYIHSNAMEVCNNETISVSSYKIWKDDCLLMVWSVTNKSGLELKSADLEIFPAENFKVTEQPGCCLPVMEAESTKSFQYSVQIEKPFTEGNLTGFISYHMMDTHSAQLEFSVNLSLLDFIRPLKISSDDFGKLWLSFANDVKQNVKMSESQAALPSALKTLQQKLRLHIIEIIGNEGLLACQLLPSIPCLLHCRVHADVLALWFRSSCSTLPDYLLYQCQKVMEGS
UniProt Q13367: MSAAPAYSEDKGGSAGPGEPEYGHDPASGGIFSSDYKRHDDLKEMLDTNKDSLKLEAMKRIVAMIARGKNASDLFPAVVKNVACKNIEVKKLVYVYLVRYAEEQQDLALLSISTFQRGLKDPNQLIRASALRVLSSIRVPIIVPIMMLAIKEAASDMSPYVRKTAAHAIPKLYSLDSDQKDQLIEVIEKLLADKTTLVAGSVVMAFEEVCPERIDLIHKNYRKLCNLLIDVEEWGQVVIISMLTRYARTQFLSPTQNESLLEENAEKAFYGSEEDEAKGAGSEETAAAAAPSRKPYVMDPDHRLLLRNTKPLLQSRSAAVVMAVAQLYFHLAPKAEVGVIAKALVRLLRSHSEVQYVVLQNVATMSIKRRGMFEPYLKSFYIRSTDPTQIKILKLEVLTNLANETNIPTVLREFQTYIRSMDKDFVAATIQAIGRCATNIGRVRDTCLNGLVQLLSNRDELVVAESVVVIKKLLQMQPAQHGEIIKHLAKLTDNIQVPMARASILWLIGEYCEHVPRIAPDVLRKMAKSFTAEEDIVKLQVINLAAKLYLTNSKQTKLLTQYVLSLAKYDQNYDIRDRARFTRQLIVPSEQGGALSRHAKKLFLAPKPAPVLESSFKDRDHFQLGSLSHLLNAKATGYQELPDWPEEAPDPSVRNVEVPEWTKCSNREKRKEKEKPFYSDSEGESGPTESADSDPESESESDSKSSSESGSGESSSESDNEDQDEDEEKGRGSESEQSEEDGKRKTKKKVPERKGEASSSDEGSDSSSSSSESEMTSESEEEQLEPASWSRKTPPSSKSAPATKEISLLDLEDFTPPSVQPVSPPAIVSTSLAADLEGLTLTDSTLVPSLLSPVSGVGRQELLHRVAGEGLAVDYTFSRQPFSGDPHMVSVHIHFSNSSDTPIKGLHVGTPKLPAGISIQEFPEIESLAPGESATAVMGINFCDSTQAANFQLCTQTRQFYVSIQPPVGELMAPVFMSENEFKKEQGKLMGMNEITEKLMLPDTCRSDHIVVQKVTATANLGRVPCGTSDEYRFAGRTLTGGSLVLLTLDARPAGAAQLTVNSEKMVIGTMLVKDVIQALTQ
UniProt P27216: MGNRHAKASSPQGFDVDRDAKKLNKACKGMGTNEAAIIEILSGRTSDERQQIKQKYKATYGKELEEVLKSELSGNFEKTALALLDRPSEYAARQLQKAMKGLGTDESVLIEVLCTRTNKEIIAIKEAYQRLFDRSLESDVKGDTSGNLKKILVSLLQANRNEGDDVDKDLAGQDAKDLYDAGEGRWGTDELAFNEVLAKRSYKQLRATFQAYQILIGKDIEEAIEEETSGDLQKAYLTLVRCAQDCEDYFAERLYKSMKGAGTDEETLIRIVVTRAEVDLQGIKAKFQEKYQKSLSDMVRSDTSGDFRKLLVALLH

Assays:
Experiment in all cases: log2 fold change, soluble protein after heating vs DMSO (PISA); higher = thermal stabilisation; K562 lysate, 10 uM; active = over 0.2 and 3.5 SD of the protein, either way, in both replicates (recomputed)
[1] = compound: C1=CC=C(C=C1)[C@H](COC2=CC3=C(C=C2)NC(=O)N3)NC(=O)C4=CC=CN(C4=O)CC5=CC(=C(C=C5)F)F
In short: (§1)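 Dounce homogenisation of K562 pellets in PBS pH 7.4 with 1 mM MgCl2 produced a crude extract, used at 1 mg/mL protein. Exposure to 10 μM compound lasted 30 min, and aliquots were then heated for 3 min across 48°C-58°C, pooled and brought to 0.5% NP-40 at 4°C. The supernatant after 21,000xg for 90 min was quantified by TMTpro 16plex LC-MS/MS with channel sums equalised. Duplicate values are given as log-two fold change in thermal stability relative to solvent controls.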

[2] = compound: CC1=C(SC2=C1C(=N[C@H](C3=NN=C(N32)C)CC(=O)N)C4=CC=C(C=C4)Cl)C
In short: as §1

[3] = compound: CC1=C2C(=CC=C1)N=C(N(C2=O)C3=CC=CC=C3C)CN4C=NC5=C(N=CN=C54)N
In short: as §1

[4] = compound: Cc1sc2c(c1C)C(c1ccc(Cl)cc1)=N[C@@H](CC(=O)OC(C)(C)C)c1nnc(C)n1-2
In short: as §1

[5] = compound: c1ccc([C@@H]2C[C@H]2NC2CCNCC2)cc1
In short: as §1

Measured: log2 fold change

ANXA5 (UniProt P08758)
inactive: [1] 0.031 | [2] 0.016 | [3] 0.013 | [4] 0.033 | [5] 0.075

AP1B1 isoform 3 (UniProt Q10567)
inactive: [1] 0.295 | [2] -0.089

AMZ2 (UniProt Q86W34)
inactive: [1] 0.067 | [2] 0.059 | [3] 0.123 | [4] -0.056

ALDH9A1 (UniProt P49189)
inactive: [1] 0.036 | [2] -0.057 | [3] -0.109 | [4] 0.061

ALKBH4 (UniProt Q9NXW9)
inactive: [1] 0.011 | [2] 0.025 | [3] 0.032 | [4] 0.01 | [5] -0.017

AKT1 (UniProt P31749)
inactive: [1] 0.011 | [2] -0.028 | [3] -0.028 | [4] -0.009 | [5] 0.013

ALG3 (UniProt Q92685)
inactive: [1] 0.002 | [2] -0.006 | [3] 0.048 | [4] -0.035 | [5] -0.127

AP1S2 isoform 2 (UniProt P56377)
inactive: [1] 0.026 | [2] -0.004 | [3] 0.023 | [4] -0.063 | [5] -0.196

ALDOA (UniProt P04075)
inactive: [1] 0.027 | [2] 0.001 | [3] -0.037 | [4] -0.021 | [5] -0.037

ANKS1A (UniProt Q92625)
inactive: [1] -0.022 | [2] -0.005 | [3] 0.011 | [4] 0.016 | [5] -0.055

ALMS1 (UniProt Q8TCU4)
inactive: [1] -0.038 | [2] -0.004 | [3] 0.025 | [4] -0.033 | [5] -0.008

AMPD3 isoform 4 (UniProt Q01432)
inactive: [1] 0.02 | [2] -0.021 | [3] -0.012 | [4] 0.018 | [5] 0.093

ALDH6A1 (UniProt Q02252)
inactive: [1] 0.011 | [2] -0.111 | [3] 0 | [4] 0.02 | [5] -0.061

ANKRD26 (UniProt Q9UPS8)
inactive: [1] -0.056 | [2] -0.001 | [3] 0.103

ANLN (UniProt Q9NQW6)
inactive: [1] 0.04 | [2] -0.014 | [3] 0.053 | [4] 0.015 | [5] 0.005

ANKFY1 isoform 4 (UniProt Q9P2R3)
inactive: [1] -0.054 | [2] 0.024 | [3] -0.02 | [4] 0.011 | [5] 0.049

AP1S1 (UniProt P61966)
inactive: [1] 0.006 | [2] -0.013 | [3] 0.001 | [4] 0.079 | [5] 0.06

Two entries drawn at random from the list so far:
ALMS1 (UniProt Q8TCU4)
inactive: [1] -0.038 | [2] -0.004 | [3] 0.025 | [4] -0.033 | [5] -0.008

ANKFY1 isoform 4 (UniProt Q9P2R3)
inactive: [1] -0.054 | [2] 0.024 | [3] -0.02 | [4] 0.011 | [5] 0.049

Further records follow:

ALDH18A1 (UniProt P54886)
inactive: [1] -0.018 | [2] -0.032 | [3] 0.019 | [4] -0.005 | [5] 0.034

ALG6 (UniProt Q9Y672)
inactive: [1] 0.02 | [2] -0.05 | [3] 0.288 | [4] -0.067 | [5] -0.038

ANAPC5 (UniProt Q9UJX4)
inactive: [1] -0.003 | [2] 0.022 | [3] 0.011 | [4] -0.009 | [5] 0.005

AP4E1 (UniProt Q9UPM8)
inactive: [1] -0.039 | [2] 0.003 | [3] 0.011 | [4] -0.056 | [5] 0.007

ALG9 isoform 3 (UniProt Q9H6U8)
inactive: [1] -0.051 | [2] 0.049 | [3] 0.002 | [4] -0.084 | [5] -0.01

AP3B2 isoform 4 (UniProt Q13367)
inactive: [1] -0.007 | [2] 0.027 | [3] -0.024 | [4] 0.057 | [5] 0.023

ANXA13 isoform 2 (UniProt P27216)
inactive: [1] 0.058 | [2] -0.041 | [3] -0.048 | [4] 0.17 | [5] 0.011

AP3M2 (UniProt P53677)
inactive: [1] -0.02 | [2] -0.078 | [3] -0.143 | [4] -0.014 | [5] -0.114
